# In all, about 320,000 compounds went through this assay and about 2,100 (0.66%) were called active. Inconclusive results, whose numbers are uncertain, are shown with a selection of clear calls. The call rests on the fitted dose curve; in most records, active means well fitted inhibition curve with a large enough effect in the signal ratio, with a control signal flat (not every such curve was filed as active); inconclusive means small, poorly fitted or top-dose-only effect, or effect the other way, or a change in a side signal; inactive means flat fitted curve, though single readings scatter; the % refers to the signal ratio. Potencies beside an inconclusive call are fits to weak or partial responses and may not hold up.
# Assay: qHTS Assay for Lipid Storage Modulators in Drosophila S3 Cells
# Details: BODIPY lipid droplet fluorescence, 18-24 h, cells fed with added oleic acid; lipid storage change, negative = inhibition: at 46.1 µM (top of the series) unless noted
# Procedure, shortened: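 Laser-scanning cytometry quantifies lipid droplet accumulation (500–530 nm total intensity; droplet/cell object ratio) in oleic acid-fed (400 uM added) Drosophila S3 cells treated with a concentration series. 20 uM Triacsin C defined 100% inhibition.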
# On the % scale 0 is the no-effect control and ±100 the full control effect; potency means the concentration at half of the fitted maximal effect.
Compound,"lipid storage change, negative = inhibition",Potency
Cc1oc2c(cc(NS(=O)(=O)c3ccc4c5c(cccc35)C(=O)N4)c3ccccc32)c1C(=O)OC(C)C,inactive: -3.12%,
CC(=O)c1ccc(Sc2nnc(C)s2)c([N+](=O)[O-])c1,inconclusive: -24.9%,
COc1cc(SC)ccc1C(=O)N(CC(=O)Nc1ccccc1Br)Cc1ccco1,inconclusive,
CCOC(=O)C(C)Oc1cccc2c(=O)n(CC(=O)N3CCN(C(=O)OCC)CC3)ccc12 (stereo not given),,"inconclusive: 6.51 µM [activator, single point]"
Cc1ccc(-n2c(C)cc(C(=O)CN3CCOCC3)c2C)cc1C,inactive: -17%,
Cc1cc(C)cc(NC(=O)c2ccc(NC3=NC4CS(=O)(=O)CC4S3)cc2)c1 (stereo not given),inconclusive: 4.24%,
CCN(CC)S(=O)(=O)c1ccc(NC(=S)NC(=O)C(C)C)cc1,inconclusive: -21.4%,
C=CCN=C1CCCc2c1[nH]c1ccc(C)cc21,inconclusive: -28.1%,
O=C(NCCC1=CCCCC1)C(=O)NCc1ccccc1Cl,,"inconclusive: 6.51 µM [falling, single point]"
COc1cc(OC)cc(C(=O)NCC(=O)NCCN2C(=O)S/C(=C\c3ccccc3Cl)C2=O)c1,inconclusive: -30.3%,
CCC(C)(C(=O)NC1CCCC1)N(C(C)=O)c1ccc(C)cc1 (stereo not given),,"inconclusive: 29.1 µM [falling, single point]"
CCn1c(O)c(/C=N/N=C/c2ccc(OC)cc2)c2cc(C3=NNC(=O)CC3)ccc21,inconclusive: 30.8%,
O=C(NCc1cccs1)c1nc2c(nnn2Cc2ccccc2Cl)c(=O)[nH]1,,"inconclusive: 20.6 µM [falling, partial curve]"
CN(CC(=O)NCc1ccc(F)cc1)S(=O)(=O)c1ccc2c(c1)n(C)c(=O)c(=O)n2C,,"inconclusive: 6.51 µM [falling, single point]"
O=C(Cc1ccc(Cl)cc1)NC(=S)Nc1ccccc1O,,"inconclusive: 13 µM [activator, partial curve]"
COc1ccc(NC(=O)CSc2nnc(-c3cccc(O)c3)o2)cc1,,"inconclusive: 0.461 µM [activator, single point]"
O=S(=O)(c1ccccc1)N1CCCc2ccccc21,,"inconclusive: 9.2 µM [activator, partial curve, poor fit]"
O=C(Nc1ccccc1)C1COc2ccccc2O1 (stereo not given),inconclusive: 33.2%,
Cn1c(N2CCCC2)nc2c1c(=O)n(Cc1ccc(Cl)cc1)c(=O)n2C,,"inconclusive: 29.1 µM [falling, single point]"
Cn1c(COc2ccc(Cl)cc2)nnc1SCC(=O)NC1CC1,,"inconclusive: 0.082 µM [falling, partial curve, poor fit]"

# Part of the list above, tab-delimited:
Compound	lipid storage change, negative = inhibition	Potency
Cc1ccc(-n2c(C)cc(C(=O)CN3CCOCC3)c2C)cc1C	inactive: -17%	
O=C(Cc1ccc(Cl)cc1)NC(=S)Nc1ccccc1O		inconclusive: 13 µM [activator, partial curve]

# From PubChem BioAssay AID2685 (National Center for Advancing Translational Sciences (NCATS), 2010)
